Data: PubChem BioAssay AID330 (DTP/NCI, 2004)
The list is a part of this screen's results and no random one: it gathers tests that were run many times, whatever their T/C, doses with no T/C, and many T/C values between a quarter and a half above the control. Other doses and runs of a compound stand elsewhere. T/C is the treated group as % of the vehicle group. Some doses have a count of surviving animals in place of a T/C: the source holds a T/C of zero for them, seemingly a mark for toxic or unscored doses. Some doses without a T/C left all or most animals alive at the check, yet need not have been tolerated: the source hardly ever lists a survival T/C far under the control, and the zero likely stands for such cases as well. Counts of survivors are from the toxicity check (mostly the fifth day) where no day follows; animals may have died later. Schedule codes are those of the source, taken here to give the interval after Q, in days (D) or hours (H), and the number of doses after X. Some doses were run more than once; the results are listed from low to high. Where survival is the endpoint, this PubChem deposit counts one and a half times the control or more as active, and values a quarter to a half above the control carry no call in these data; other NCI protocols may use other cut-offs. Some T/C values are followed by the survivors on the day toxicity was checked, most often the fifth; where none is given, no animal had died by that day.

System: P388 leukemia ip, CD2F1 mice, survival T/C
Test: NCI In Vivo Anticancer Drug Screen. Data for tumor model P388 Leukemia (intraperitoneal) in CD2F1 (CDF1) mice
Conditions: T/C endpoint: median survival time, higher T/C = longer survival
[1] = dose: 50.0 mg/kg/injection, schedule: Q01DX009 (ip), vehicle: saline with Tween-80
[2] = dose: 200.0 mg/kg/injection, schedule: Q01DX009 (ip), vehicle: saline with Tween-80
[3] = dose: 200.0 mg/kg/injection, schedule: Q01DX005 (ip), vehicle: saline with Tween-80
[4] = dose: 200.0 mg/kg/injection, schedule: Q01DX009 (ip), vehicle: Klucel (hydroxypropylcellulose) (HPC)
[5] = dose: 200.0 mg/kg/injection, schedule: Q01DX005 (ip), vehicle: Klucel (hydroxypropylcellulose) (HPC)
[6] = dose: 100.0 mg/kg/injection, schedule: Q01DX005 (ip), vehicle: saline with Tween-80

COc1cccc2c1C(=O)c1c(O)c3c(c(O)c1C2=O)CC(O)(C(C)=O)CC3OC1CC(N=CN(C)C)C(O)C(C)O1 (stereo unspecified)
T/C (dose: 25.0 mg/kg/injection, schedule: Q04DX003 (ip), vehicle: distilled water + Tween-80): 129 and 137 % of control | T/C (dose: 50.0 mg/kg/injection, schedule: Q04DX003 (ip), vehicle: distilled water + Tween-80): 128 % of control | T/C (dose: 100.0 mg/kg/injection, schedule: Q04DX003 (ip), vehicle: distilled water + Tween-80): 134 % of control | T/C (dose: 200.0 mg/kg/injection, schedule: Q04DX003 (ip), vehicle: distilled water + Tween-80): 137 % of control

CC1=CC(=O)C=C(C)C1=O
survivor count (dose: 12.5 mg/kg/injection, schedule: Q04DX003 (ip), vehicle: saline + alcohol): 3 of 6 | survivor count (dose: 25.0 mg/kg/injection, schedule: Q04DX003 (ip), vehicle: saline + alcohol): 0 of 6 | survivor count (dose: 50.0 mg/kg/injection, schedule: Q04DX003 (ip), vehicle: saline + alcohol): 0 of 6 | survivor count (dose: 100.0 mg/kg/injection, schedule: Q04DX003 (ip), vehicle: saline + alcohol): 0 of 6 | survivor count (dose: 200.0 mg/kg/injection, schedule: Q04DX003 (ip), vehicle: saline + alcohol): 0 of 6 | survivor count (dose: 400.0 mg/kg/injection, schedule: Q04DX003 (ip), vehicle: saline + alcohol): 0 of 6

CCn1c2ccccc2c2cc(N=Nc3ccnc4c(O)cccc34)ccc21
T/C [1]: 125 and 127 % of control | survivor count [2]: 6 of 6

N#Cc1ccc(NN=NCCCCl)cc1
survivor count (dose: 200.0 mg/kg/injection, schedule: Q01DX005 (ip), vehicle: distilled water + Tween-80): 0 of 6 | survivor count [3]: 0 of 6

N=c1c2c(ncn1Cc1ccccc1)CCN(Cc1ccccc1)C2
survivor count [1]: 3 of 6

O=S1(=O)C=C(Cl)C2C3CC(C(Cl)C3Cl)C21 (stereo unspecified)
survivor count (dose: 60.0 mg/kg/injection, schedule: Q04DX003 (ip), vehicle: saline): 3 of 6

CCCCCCC(/C=C/c1ccc(Cl)c(Cl)c1)=N\Nc1ccccc1
survivor count [1]: 6 of 6 | survivor count (dose: 100.0 mg/kg/injection, schedule: Q01DX009 (ip), vehicle: saline with Tween-80): 6 of 6 | survivor count [2]: 6 of 6

O=C(O)/C=C/C(=O)Nc1ccc(Cl)c(Cl)c1
T/C (dose: 50.0 mg/kg/injection, schedule: Q01DX009 (ip), vehicle: Klucel (hydroxypropylcellulose) (HPC)): 97, 119, 125, 133 % of control | T/C (dose: 100.0 mg/kg/injection, schedule: Q01DX009 (ip), vehicle: Klucel (hydroxypropylcellulose) (HPC)): 106, 120, 127, 137 % of control [5 of 6 alive] | T/C [4]: 101, 125 [5 of 6 alive], 132 % of control | survivor count [4]: 6 of 6 | survivor count (dose: 400.0 mg/kg/injection, schedule: Q01DX009 (ip), vehicle: Klucel (hydroxypropylcellulose) (HPC)): 5 of 6

COc1cc(/C=N\N=C\c2cc(OC)c(OC)c(OC)c2)cc(OC)c1OC
survivor count (dose: 100.0 mg/kg/injection, schedule: Q04DX003 (ip), vehicle: saline with Tween-80): 6 of 6 | survivor count (dose: 400.0 mg/kg/injection, schedule: Q04DX003 (ip), vehicle: saline with Tween-80): 6 of 6

COc1ccc2cc(-c3ccccc3)[s+]cc2c1
survivor count (dose: 12.5 mg/kg/injection, schedule: Q01DX009 (ip), vehicle: DMSO): 5 of 5 | survivor count (dose: 25.0 mg/kg/injection, schedule: Q01DX009 (ip), vehicle: DMSO): 6 of 6 | survivor count (dose: 50.0 mg/kg/injection, schedule: Q01DX009 (ip), vehicle: DMSO): 6 of 6 | survivor count (dose: 100.0 mg/kg/injection, schedule: Q01DX009 (ip), vehicle: DMSO): 5 of 5 | survivor count (dose: 200.0 mg/kg/injection, schedule: Q01DX009 (ip), vehicle: DMSO): 2 of 5 | survivor count (dose: 400.0 mg/kg/injection, schedule: Q01DX009 (ip), vehicle: DMSO): 1 of 5

COc1cccc2c1C(=O)c1c(O)c3c(c(O)c1C2=O)[C@@H](N=[N+]=[N-])[C@@](O)(C(C)=O)C[C@@H]3OC1CC(N)C(O)C(C)O1 (stereo partly specified)
T/C (dose: 25.0 mg/kg/injection, schedule: Q04DX003 (ip), vehicle: water): 136 % of control [5 of 6 alive on day 9]

Cc1cc(O)c(C)c(C(=O)O)c1
survivor count (dose: 400.0 mg/kg/injection, schedule: Q01DX009 (ip), vehicle: saline with Tween-80): 2 of 6

Cc1noc(C)c1CON
survivor count (dose: 150.0 mg/kg/injection, schedule: Q01DX009 (ip), vehicle: saline with Tween-80): 6 of 6 | survivor count (dose: 300.0 mg/kg/injection, schedule: Q01DX009 (ip), vehicle: saline with Tween-80): 6 of 6

N#C[S-].N#C[S-].[Au+3].[Au+3].[CH3-].[CH3-].[CH3-].[CH3-]
survivor count (dose: 200.0 mg/kg/injection, schedule: Q04DX003 (ip), vehicle: saline with Tween-80): 3 of 6

C1CNP2(=NP(N3CC3)(N3CC3)=NP(N3CC3)(N3CC3)=N2)N1
T/C (dose: 50.0 mg/kg/injection, schedule: Q01DX001 (ip), vehicle: saline with Tween-80): 135 % of control | survivor count (dose: 200.0 mg/kg/injection, schedule: Q01DX001 (ip), vehicle: saline with Tween-80): 6 of 6 | survivor count (dose: 400.0 mg/kg/injection, schedule: Q01DX001 (ip), vehicle: saline with Tween-80): 6 of 6

CC1=C(c2ccccc2)C2(c3ccccc3)[N-][n+]3c(ccc4ccccc43)C2(C)C1=O (stereo unspecified)
survivor count [5]: 3 of 5

Cc1c(COC(=O)NC(C)C)c(COC(=O)NC(C)C)c2n1CS(=O)(=O)C2
T/C (dose: 12.5 mg/kg/injection, schedule: Q01DX005 (ip), vehicle: saline with Tween-80): 133 [5 of 6 alive] and 142 % of control | T/C (dose: 25.0 mg/kg/injection, schedule: Q01DX005 (ip), vehicle: saline with Tween-80): 147 % of control | survivor count [6]: 6 of 6

CN(C)c1ccc2nc3c(C(=O)O)cc(=O)c(O)c-3oc2c1
survivor count [5]: 2 of 6

COc1ccc(C2C3CCN2CC3)cc1 (stereo unspecified)
survivor count (dose: 25.0 mg/kg/injection, schedule: Q01DX009 (ip), vehicle: saline): 0 of 6 | survivor count (dose: 50.0 mg/kg/injection, schedule: Q01DX009 (ip), vehicle: saline): 0 of 6 | survivor count (dose: 100.0 mg/kg/injection, schedule: Q01DX009 (ip), vehicle: saline): 0 of 6 | survivor count (dose: 200.0 mg/kg/injection, schedule: Q01DX009 (ip), vehicle: saline): 0 of 6

CCOc1ccc(C(C)c2cc3c(cc2OCC)OCO3)cc1 (stereo unspecified)
T/C (dose: 50.0 mg/kg/injection, schedule: Q01DX005 (ip), vehicle: saline with Tween-80): 136 % of control | T/C [6]: 125 % of control | survivor count [6]: 3 of 6 and 4 of 6 | survivor count [3]: 0 of 6 | survivor count (dose: 400.0 mg/kg/injection, schedule: Q01DX005 (ip), vehicle: saline with Tween-80): 0 of 6

CC(=O)OC1C(O)C(C)OC(OC2C(OC(=O)C3CCC4C(C3)OC3(CC(OC(=O)/C=C/c5ccccc5)C(C)CO3)C43CO3)OC(CO)C(O)C2OC(C)=O)C1O (stereo unspecified)
T/C (dose: 6.0 mg/kg/injection, schedule: Q01DX009 (ip), vehicle: saline + alcohol): 129 and 136 % of control | T/C (dose: 12.0 mg/kg/injection, schedule: Q01DX009 (ip), vehicle: saline + alcohol): 131 and 143 % of control | survivor count (dose: 24.0 mg/kg/injection, schedule: Q01DX009 (ip), vehicle: saline + alcohol): 3 of 5

Nc1cccc(CCCCc2ccccc2)c1
survivor count (dose: 400.0 mg/kg/injection, schedule: Q04DX002 (ip), vehicle: saline): 1 of 6

CC[C@@]1(O)C[C@H](OC2CC(N(C)C)C(OC3CC4OC5CC(=O)C(C)OC5OC4C(C)O3)C(C)O2)c2c(cc3c(c2O)C(=O)c2c(O)cccc2C3=O)[C@H]1C(=O)OC (stereo partly specified)
T/C (dose: 2.0 mg/kg/injection, schedule: Q01DX009 (ip), vehicle: water): 132 % of control | survivor count (dose: 8.0 mg/kg/injection, schedule: Q01DX009 (ip), vehicle: water): 4 of 6

c1ccc2c3ccc(c2c1)CCc1ccc(c2ccccc12)CC3
survivor count (dose: 400.0 mg/kg/injection, schedule: Q04DX003 (ip), vehicle: other): 6 of 6
